This note sets out measurements from paper PMC3380923, “Structure Analysis of Entamoeba histolytica DNMT2 (EhMeth)” (PLoS ONE, 2012).

A weaker result is weaker than the reference pair of the same experiment. Protein sequences can lack the tags named with them.

In the series the target is T1, EhMeth (DNMT2) (Entamoeba histolytica) (UniProt Q6Q386).
T1 sequence (looked up): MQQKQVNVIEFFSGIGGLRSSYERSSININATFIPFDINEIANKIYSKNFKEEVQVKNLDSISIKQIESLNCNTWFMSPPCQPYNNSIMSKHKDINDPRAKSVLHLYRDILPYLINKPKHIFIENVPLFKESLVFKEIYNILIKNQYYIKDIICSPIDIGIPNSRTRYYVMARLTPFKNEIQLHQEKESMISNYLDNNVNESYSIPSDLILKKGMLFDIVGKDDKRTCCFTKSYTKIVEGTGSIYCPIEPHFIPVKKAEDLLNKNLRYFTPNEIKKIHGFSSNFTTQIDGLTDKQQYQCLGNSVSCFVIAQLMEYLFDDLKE
Put plainly: EMSA. The note with it: 10 mM Mg2+, 2-20 uM EhMeth, 50 mM HEPES pH 8.0, 50 mM KCl, 10 mM MgCl2, 1 mM EDTA, 0.5% (w/v) glycerol, 0.1 mg/ml BSA, 1 mM DTT, 25 min at room temperature, 1% agarose gel, 1x TAE, on ice, recombinant protein, residues 1-322, label: none (GelRed stain). A general note: A gel shift assay detects complexes by their altered migration in electrophoresis.

“CCCGCCUGUCACGCGGG [tRNAAsp anticodon stem-loop (17 nt)]”: the binding result (2 uM RNA, free band fades, no defined shifted band) is reported as “binds more weakly”.

Take “GATAGCGCTATC / TGATAGCGCTATC [M.HhaI co-crystal DNA duplex (as in PDB 1MHT)]”: the binding result (2 uM DNA, slight shift and smearing, not completely shifted) is “binds more weakly”.
